Laboratory results reported in the supplement of paper PMC10849652.
This is one part of the list. Residues, ends and D or L forms follow the SMILES beside them. *: point of attachment. Cbz = O=C(OCc1ccccc1)*

Amino acid sequences for entries named in this document (tags omitted). A change or cut given only in a name is not applied to a line headed by its entry.
UniProt Q8WYB5, whole entry, looked up: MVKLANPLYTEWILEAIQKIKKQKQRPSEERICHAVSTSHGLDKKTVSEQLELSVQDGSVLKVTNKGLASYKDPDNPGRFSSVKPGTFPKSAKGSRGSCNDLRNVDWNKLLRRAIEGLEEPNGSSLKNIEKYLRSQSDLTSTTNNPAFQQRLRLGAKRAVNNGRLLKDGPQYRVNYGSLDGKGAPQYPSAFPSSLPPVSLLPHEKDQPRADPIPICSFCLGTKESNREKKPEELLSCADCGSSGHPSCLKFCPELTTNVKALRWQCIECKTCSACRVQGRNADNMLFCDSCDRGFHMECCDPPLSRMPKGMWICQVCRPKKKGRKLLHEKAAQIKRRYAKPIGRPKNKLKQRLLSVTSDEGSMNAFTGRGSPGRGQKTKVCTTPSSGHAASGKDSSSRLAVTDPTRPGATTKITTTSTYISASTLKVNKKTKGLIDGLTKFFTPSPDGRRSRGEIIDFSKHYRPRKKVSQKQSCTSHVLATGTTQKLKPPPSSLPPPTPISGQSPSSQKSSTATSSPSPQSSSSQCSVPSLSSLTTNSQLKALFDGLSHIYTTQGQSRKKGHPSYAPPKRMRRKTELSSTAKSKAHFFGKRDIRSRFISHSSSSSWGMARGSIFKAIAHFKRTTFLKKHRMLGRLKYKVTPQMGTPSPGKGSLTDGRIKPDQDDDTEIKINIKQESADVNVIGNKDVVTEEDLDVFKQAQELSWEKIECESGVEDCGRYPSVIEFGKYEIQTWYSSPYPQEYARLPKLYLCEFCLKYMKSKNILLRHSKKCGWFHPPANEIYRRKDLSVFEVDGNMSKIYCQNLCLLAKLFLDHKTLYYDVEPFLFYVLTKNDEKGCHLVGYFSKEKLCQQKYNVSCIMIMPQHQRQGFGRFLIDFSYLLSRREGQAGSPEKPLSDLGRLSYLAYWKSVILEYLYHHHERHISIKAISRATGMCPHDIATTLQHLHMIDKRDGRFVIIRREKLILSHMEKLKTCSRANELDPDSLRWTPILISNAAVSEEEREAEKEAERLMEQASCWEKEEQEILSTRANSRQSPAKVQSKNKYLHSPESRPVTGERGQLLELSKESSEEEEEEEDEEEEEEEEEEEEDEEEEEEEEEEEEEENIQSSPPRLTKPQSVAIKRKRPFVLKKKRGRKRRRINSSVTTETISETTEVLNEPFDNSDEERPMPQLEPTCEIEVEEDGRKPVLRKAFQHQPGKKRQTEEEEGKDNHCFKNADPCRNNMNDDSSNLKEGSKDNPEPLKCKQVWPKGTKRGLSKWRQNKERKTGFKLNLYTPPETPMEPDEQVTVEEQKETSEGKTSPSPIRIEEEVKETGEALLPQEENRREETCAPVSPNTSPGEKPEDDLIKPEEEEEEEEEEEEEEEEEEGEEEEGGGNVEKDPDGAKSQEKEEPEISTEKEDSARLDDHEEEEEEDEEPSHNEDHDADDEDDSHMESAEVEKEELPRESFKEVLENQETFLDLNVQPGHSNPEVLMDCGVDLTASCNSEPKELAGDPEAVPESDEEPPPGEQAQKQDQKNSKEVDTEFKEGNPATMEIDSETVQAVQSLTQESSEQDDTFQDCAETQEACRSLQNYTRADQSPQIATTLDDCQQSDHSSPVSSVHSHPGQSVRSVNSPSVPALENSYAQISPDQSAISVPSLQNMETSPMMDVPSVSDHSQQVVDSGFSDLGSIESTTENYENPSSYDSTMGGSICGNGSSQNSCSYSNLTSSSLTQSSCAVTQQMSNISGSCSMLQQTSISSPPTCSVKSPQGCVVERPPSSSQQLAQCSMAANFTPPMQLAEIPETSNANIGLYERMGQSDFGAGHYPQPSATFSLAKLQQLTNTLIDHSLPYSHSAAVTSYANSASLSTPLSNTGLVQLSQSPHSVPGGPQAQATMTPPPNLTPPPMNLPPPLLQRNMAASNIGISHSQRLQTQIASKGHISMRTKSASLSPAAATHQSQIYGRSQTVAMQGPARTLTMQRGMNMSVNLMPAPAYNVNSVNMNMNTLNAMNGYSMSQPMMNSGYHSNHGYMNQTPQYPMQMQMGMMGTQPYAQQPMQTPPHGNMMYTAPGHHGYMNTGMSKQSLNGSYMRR
UniProt Q15053: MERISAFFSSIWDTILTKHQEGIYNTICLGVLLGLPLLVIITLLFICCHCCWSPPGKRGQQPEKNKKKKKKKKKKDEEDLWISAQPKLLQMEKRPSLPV
UniProt P52333: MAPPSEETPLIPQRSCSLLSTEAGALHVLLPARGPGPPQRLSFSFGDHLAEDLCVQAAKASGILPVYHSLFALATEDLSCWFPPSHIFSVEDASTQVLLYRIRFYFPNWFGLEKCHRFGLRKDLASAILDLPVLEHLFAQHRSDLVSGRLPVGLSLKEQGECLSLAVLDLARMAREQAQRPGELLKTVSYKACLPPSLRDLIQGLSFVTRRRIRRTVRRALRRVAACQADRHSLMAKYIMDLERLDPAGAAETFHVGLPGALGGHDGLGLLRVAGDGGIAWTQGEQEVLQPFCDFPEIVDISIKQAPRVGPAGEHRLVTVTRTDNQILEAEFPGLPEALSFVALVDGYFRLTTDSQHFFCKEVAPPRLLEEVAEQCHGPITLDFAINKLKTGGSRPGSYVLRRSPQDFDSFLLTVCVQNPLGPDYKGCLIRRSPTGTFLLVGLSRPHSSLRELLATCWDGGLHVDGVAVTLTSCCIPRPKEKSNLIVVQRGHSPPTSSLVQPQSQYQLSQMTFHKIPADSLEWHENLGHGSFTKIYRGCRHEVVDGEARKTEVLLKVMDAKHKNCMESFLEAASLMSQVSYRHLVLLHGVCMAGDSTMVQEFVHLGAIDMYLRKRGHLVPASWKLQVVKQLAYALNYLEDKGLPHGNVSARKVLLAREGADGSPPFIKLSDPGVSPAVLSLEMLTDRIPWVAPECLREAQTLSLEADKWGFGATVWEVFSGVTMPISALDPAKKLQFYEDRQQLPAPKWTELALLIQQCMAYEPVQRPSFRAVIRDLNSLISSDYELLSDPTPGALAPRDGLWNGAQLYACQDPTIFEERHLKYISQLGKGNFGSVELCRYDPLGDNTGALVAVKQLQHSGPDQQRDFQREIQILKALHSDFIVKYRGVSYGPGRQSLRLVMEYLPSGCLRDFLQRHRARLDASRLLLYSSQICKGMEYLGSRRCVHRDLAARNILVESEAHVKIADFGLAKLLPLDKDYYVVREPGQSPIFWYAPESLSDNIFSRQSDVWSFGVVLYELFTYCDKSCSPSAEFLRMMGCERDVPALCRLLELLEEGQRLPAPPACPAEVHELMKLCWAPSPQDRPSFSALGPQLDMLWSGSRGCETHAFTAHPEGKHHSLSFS
UniProt Q12809: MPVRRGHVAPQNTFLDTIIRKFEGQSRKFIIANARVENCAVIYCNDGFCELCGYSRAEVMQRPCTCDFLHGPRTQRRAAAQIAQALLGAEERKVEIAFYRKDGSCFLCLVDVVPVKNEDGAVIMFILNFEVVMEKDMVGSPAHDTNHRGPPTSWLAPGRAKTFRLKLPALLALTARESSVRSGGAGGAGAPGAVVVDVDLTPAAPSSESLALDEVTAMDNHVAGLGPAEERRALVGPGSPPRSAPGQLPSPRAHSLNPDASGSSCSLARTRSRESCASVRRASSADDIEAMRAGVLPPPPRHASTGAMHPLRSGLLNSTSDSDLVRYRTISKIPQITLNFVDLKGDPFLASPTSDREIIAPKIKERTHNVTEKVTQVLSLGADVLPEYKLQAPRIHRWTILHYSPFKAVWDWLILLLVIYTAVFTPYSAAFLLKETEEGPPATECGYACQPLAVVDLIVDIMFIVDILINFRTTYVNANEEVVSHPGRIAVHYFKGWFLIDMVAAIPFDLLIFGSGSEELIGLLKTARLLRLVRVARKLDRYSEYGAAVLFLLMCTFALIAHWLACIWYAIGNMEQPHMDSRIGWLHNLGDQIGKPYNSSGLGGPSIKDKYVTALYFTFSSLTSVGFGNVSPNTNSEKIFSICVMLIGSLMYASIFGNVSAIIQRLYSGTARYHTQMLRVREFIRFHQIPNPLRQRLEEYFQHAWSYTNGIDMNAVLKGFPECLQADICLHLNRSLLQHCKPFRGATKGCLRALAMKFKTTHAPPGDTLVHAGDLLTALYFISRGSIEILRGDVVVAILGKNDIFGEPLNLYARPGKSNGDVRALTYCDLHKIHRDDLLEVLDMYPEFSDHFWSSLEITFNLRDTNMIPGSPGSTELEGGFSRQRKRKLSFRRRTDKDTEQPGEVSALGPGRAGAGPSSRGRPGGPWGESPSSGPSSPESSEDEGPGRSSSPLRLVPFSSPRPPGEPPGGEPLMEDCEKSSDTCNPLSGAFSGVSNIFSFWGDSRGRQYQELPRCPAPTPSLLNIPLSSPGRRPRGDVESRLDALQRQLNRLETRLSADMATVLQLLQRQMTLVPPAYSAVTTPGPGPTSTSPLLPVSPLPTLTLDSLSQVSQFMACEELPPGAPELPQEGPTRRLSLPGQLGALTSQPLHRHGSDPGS
UniProt Q9Y2K7: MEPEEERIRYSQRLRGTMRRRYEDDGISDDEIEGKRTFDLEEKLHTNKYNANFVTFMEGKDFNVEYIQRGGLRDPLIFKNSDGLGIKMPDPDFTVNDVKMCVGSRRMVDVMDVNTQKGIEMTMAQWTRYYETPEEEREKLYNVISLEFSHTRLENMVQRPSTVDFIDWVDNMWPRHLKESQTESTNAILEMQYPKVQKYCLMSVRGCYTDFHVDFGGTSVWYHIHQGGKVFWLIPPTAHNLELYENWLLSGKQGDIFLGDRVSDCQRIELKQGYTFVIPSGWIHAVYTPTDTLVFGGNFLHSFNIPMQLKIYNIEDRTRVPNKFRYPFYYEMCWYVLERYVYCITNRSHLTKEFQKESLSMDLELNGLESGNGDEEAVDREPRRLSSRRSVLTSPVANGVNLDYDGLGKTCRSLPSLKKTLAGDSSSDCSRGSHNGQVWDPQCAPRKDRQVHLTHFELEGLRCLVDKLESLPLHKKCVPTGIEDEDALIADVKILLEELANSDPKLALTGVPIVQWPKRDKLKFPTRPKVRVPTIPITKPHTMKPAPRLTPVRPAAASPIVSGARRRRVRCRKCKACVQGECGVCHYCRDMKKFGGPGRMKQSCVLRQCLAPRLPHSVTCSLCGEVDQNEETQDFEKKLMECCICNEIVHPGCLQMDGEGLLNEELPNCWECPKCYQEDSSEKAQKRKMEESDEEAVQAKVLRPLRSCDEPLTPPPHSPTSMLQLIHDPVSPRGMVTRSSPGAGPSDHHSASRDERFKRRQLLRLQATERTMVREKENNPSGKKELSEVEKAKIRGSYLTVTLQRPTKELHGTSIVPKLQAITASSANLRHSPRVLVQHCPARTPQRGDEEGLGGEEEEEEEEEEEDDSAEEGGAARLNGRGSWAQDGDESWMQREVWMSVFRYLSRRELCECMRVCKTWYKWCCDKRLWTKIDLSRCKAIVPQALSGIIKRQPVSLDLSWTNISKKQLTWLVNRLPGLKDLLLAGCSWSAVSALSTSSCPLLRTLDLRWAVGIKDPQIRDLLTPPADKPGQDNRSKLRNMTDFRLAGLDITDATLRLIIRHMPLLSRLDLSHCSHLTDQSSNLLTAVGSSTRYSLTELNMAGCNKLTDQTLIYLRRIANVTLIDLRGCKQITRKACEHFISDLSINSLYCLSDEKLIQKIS
UniProt Q8IXQ5, whole entry, looked up: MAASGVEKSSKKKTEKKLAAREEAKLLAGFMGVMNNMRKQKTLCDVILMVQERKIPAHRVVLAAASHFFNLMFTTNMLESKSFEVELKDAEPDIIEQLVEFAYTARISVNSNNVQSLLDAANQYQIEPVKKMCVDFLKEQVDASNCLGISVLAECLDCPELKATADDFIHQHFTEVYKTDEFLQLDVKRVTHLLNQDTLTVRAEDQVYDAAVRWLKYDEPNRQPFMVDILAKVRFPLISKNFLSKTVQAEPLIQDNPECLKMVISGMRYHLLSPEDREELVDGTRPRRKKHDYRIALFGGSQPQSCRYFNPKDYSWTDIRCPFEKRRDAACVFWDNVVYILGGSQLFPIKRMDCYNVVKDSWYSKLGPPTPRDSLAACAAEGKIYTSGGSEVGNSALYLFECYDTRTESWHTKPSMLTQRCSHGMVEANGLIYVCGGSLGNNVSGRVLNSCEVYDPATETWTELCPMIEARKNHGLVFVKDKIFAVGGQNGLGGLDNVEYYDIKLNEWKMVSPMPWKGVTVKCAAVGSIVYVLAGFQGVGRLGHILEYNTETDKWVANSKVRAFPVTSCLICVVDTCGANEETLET

How the values were obtained:
Experiment in all cases: log2 fold change, soluble protein after heating vs DMSO (PISA); higher = thermal stabilisation; K562 cells, 10 uM, 30 min; active = over 0.2 and 3.5 SD of the protein, either way, in both replicates (recomputed)
erlotinib = compound: C#Cc1cccc(Nc2ncnc3cc(OCCOC)c(OCCOC)cc23)c1 [erlotinib]
In short: (§1)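 K562 cells at 2×10^6 cells/mL were given 10 μM compound for 30 min. Aliquots then went through 3 min of heating across 48°C-58°C, were pooled, and were extracted in PBS with 0.5% NP-40 at 4°C, and the supernatant after 21,000xg for 90 min was quantified by TMTpro 16plex LC-MS/MS with channel sums equalised. Thermal stability relative to control samples, from duplicates, is given as log2 fold change.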

[1] = compound: C/C(=N\NC(=O)C1=CC(=CC=C1)S(=O)(=O)N2CCOCC2)/C3=C(C=CC(=C3)Cl)O
In short: as §1

[2] = compound: C1=CC(=C(C=C1Cl)C2=NC3=NC=CN=C3C(=N2)NC4=CC=NC=C4)F
In short: as §1

[3] = compound: C1=CC(=CC=C1C2=NC3=C(N2)C=C(C=C3)C(=O)N)OC4=CC=C(C=C4)Cl
In short: as §1

[4] = compound: C1=CC2=C(C=CC(=C2)/C=C\3/C(=O)NC(=NCC4=CC=CS4)S3)N=C1
In short: as §1

[5] = compound: C1=CC=C2C(=C1)C3=NNC4=CC=CC(=C43)C2=O
In short: as §1

[6] = compound: CC(=O)c1cnc2ccc(-c3cc(Cl)c(O)c(Cl)c3)nc2c1N[C@H]1CC[C@H](CN(C)C)CC1
In short: as §1

[7] = compound: CC(C)(O)CC(=O)NCCn1ccc2ncnc(Nc3ccc(Oc4cccc(C(F)(F)F)c4)c(Cl)c3)c21
In short: as §1

[8] = compound: CC(C)C1=C2N=C(C=C(N2N=C1)NCC3=CC=CC=C3)NCCCCCCN
In short: as §1

[9] = compound: C1=CC2=NC=CN=C2C=C1/C=C/3\C(=O)NC(=O)S3
In short: as §1

[10] = compound: C1=CC=C(C=C1)C2=NC(=C(N2)C3=CC=NC=C3)C4=CC(=C(C=C4)Cl)O
In short: as §1

[11] = compound: C1CCN(C1)C(=O)NC2=CC=CC(=C2)NC3=NC=C(C(=N3)NCCC4=CN=CN4)Br
In short: as §1

[12] = compound: C1CN(CCC1(CC2=CC=C(C=C2)Cl)N)C3=NC=NC4=C3C=CN4
In short: as §1

ibrutinib = compound: C=CC(=O)N1CCC[C@@H](n2nc(-c3ccc(Oc4ccccc4)cc3)c3c(N)ncnc32)C1 [ibrutinib]
In short: as §1

ralimetinib = compound: CC(C)(C)Cn1c(N)nc2ccc(-c3[nH]c(C(C)(C)C)nc3-c3ccc(F)cc3)nc21 [ralimetinib]
In short: as §1

[13] = compound: CC(C)C[C@@H](C=O)NC(=O)[C@H](CC(C)C)NC(=O)[C@H](CC(C)C)NC(=O)OCc1ccccc1
In short: as §1

[14] = compound: CC1=C(C(CC(=O)N1)C2=CC=C(C=C2)C(F)(F)F)C(=O)NC3=C(C=C4C(=C3)C=NN4)F
In short: as §1

[15] = compound: CC1=C(C2=C(C=C1)C(=O)C3=CC=CC=C3N2CCCN)C
In short: as §1

IRAK-1-4 Inhibitor I = compound: C1COCCN1CCN2C3=CC=CC=C3N=C2NC(=O)C4=CC(=CC=C4)[N+](=O)[O-] [IRAK-1-4 Inhibitor I]
In short: as §1

pinometostat = compound: CC(C)N(C[C@H]1O[C@@H](n2cnc3c(N)ncnc32)[C@H](O)[C@@H]1O)[C@H]1C[C@@H](CCc2nc3cc(C(C)(C)C)ccc3[nH]2)C1 [pinometostat]
In short: as §1

Measured: log2 fold change

JOSD1 (UniProt Q15040)
inactive: erlotinib -0.045 | [1] 0.431 | [2] 0.109 | [3] 0.006 | [4] 0 | [5] 0.106 | [6] -0.328 | [7] -0.115 | [8] 0.072

KAT6B (UniProt Q8WYB5)
inactive: erlotinib 0.029 | [1] 0.004 | [3] 0.145 | [4] -0.029 | [9] 0.034 | [10] 0 | [5] -0.092 | [11] -0.012 | [12] -0.017 | ibrutinib 0.056 | [6] 0.069 | ralimetinib -0.033 | [8] 0.112 | [13] 0.021 | [14] 0.134 | [15] -0.063

KIAA0040 (UniProt Q15053)
inactive: erlotinib -0.121 | [1] -0.253 | [3] -0.125 | [4] 0.201 | [5] -0.125 | [6] -0.059 | [8] -0.098 | [14] 0.003

Reprinted from the entries so far (2 entries):
KAT6B (UniProt Q8WYB5)
inactive: erlotinib 0.029 | [1] 0.004 | [3] 0.145 | [4] -0.029 | [9] 0.034 | [10] 0 | [5] -0.092 | [11] -0.012 | [12] -0.017 | ibrutinib 0.056 | [6] 0.069 | ralimetinib -0.033 | [8] 0.112 | [13] 0.021 | [14] 0.134 | [15] -0.063

KIAA0040 (UniProt Q15053)
inactive: erlotinib -0.121 | [1] -0.253 | [3] -0.125 | [4] 0.201 | [5] -0.125 | [6] -0.059 | [8] -0.098 | [14] 0.003

Following part.

KBTBD7 (UniProt Q8WVZ9)
inactive: erlotinib -0.055 | [3] -0.004 | [8] -0.238 | [14] 0.097

KDF1 (UniProt Q8NAX2)
inactive: erlotinib -0.14 | [3] 0.079 | [10] -0.125 | IRAK-1-4 Inhibitor I -0.035 | ralimetinib 0.097 | [8] 0.15 | [13] 0.043 | pinometostat -0.025

KIAA1109 (UniProt Q2LD37)
inactive: erlotinib 0.003 | [3] -0.019 | IRAK-1-4 Inhibitor I 0.055 | [8] 0.094 | pinometostat 0.041

KIAA0930 isoform 2 (UniProt Q6ICG6)
inactive: erlotinib 0.058 | [2] 0.024 | [3] -0.001 | [9] 0.006 | IRAK-1-4 Inhibitor I 0.028 | ibrutinib 0.178 | [7] -0.018 | [8] -0.011 | pinometostat -0.033 | [14] 0.064

KIF21B (UniProt O75037)
inactive: erlotinib 0.117 | [2] 0.022 | [3] -0.165 | [10] -0.039 | ralimetinib 0.268 | [7] -0.059 | [8] 0.126 | [13] 0.239 | [14] -0.019

JAK3 (UniProt P52333)
inactive: erlotinib -0.178 | [2] 0.062 | [3] -0.013 | [9] 0.021 | [10] -0.207 | [11] 0.059 | [12] -0.024 | IRAK-1-4 Inhibitor I -0.01 | ibrutinib -0.052 | ralimetinib -0.184 | [7] -0.045 | [8] 0.072 | [13] -0.043 | pinometostat -0.082 | [15] -0.089

KCNH2 (UniProt Q12809)
inactive: erlotinib 0.057 | [2] -0.352 | [3] 0.054 | [9] -0.029 | [10] 0.188 | ralimetinib -0.012 | [7] -0.036 | [8] -0.418 | pinometostat 0.581 | [15] -0.17

KDM2A (UniProt Q9Y2K7)
inactive: erlotinib -0.023 | [2] 0.149 | [3] 0.031 | [9] -0.017 | [10] 0.14 | [11] -0.085 | [12] 0.099 | IRAK-1-4 Inhibitor I -0.021 | ibrutinib -0.009 | ralimetinib -0.022 | [7] 0.014 | [8] -0.137 | [13] -0.137 | pinometostat 0 | [14] 0.149 | [15] -0.265

KLHL7 isoform 3 (UniProt Q8IXQ5)
inactive: [1] -0.045 | [2] -0.083 | [4] -0.216 | [9] -0.084 | [5] 0.056 | IRAK-1-4 Inhibitor I 0.296 | ibrutinib 0.015 | [6] -0.312 | [7] -0.146 | pinometostat 0.079 | [14] 0.014
